Assay results taken from PubChem BioAssay AID196 (DTP/NCI, 2004).
The list shows only some results of the screen, not a fair sample: it gathers tests that were run many times, whatever their T/C, doses with no T/C, and many T/C values between a quarter and a half above the control. Other doses and runs of a compound stand elsewhere. T/C gives the treated animals as a percentage of the vehicle group. Some doses have a count of surviving animals in place of a T/C: the source holds a T/C of zero for them, seemingly a mark for toxic or unscored doses. Some doses without a T/C left all or most animals alive at the check, yet need not have been tolerated: survival well below the control is almost never listed, so the zero probably covers shortened survival too. Survivors were counted at the toxicity check, usually on the fifth day, unless a day is given; later deaths do not show. Schedule codes are those of the source, read here as Q, the interval in days (D) or hours (H), X, the number of doses. Some doses were run more than once; the results are listed from low to high. Where survival is the endpoint, this PubChem deposit counts one and a half times the control or more as active, and values a quarter to a half above the control carry no call in these data; other NCI protocols may use other cut-offs. Counts like (3×) say how often a value occurs here. Some T/C values carry the count of animals alive at the toxicity check (mostly the fifth day); without a count, all were alive then.

Test system: BDF1 mice, intracerebral B16 melanoma, median survival T/C
Experiment: NCI In Vivo Anticancer Drug Screen. Data for tumor model B16 Melanoma (intracerebral) in B6D2F1 (BDF1) mice
Conditions: T/C endpoint: median survival time, higher T/C = longer survival
Experimental: The antitumor activity of compounds was measured in mice bearing transplantable tumors. Survival or tumor size were measured and the results are expressed as the measurement made in the treated group (T) divided by the measurement made in the vehicle treated control group (C). The tumor model used in this assay is B16 Melanoma (intracerebral) in B6D2F1 (BDF1) mice

[1] = dose: 90.0 mg/kg/injection, schedule: Q01DX001 (ip), vehicle: Klucel (hydroxypropylcellulose) (HPC)
[2] = dose: 4.0 mg/kg/injection, schedule: Q01DX009 (ip), vehicle: saline
[3] = dose: 128.0 mg/kg/injection, schedule: Q01DX005 (ip), vehicle: Klucel (hydroxypropylcellulose) (HPC)
[4] = dose: 512.0 mg/kg/injection, schedule: Q01DX005 (ip), vehicle: Klucel (hydroxypropylcellulose) (HPC)
[5] = dose: 1024.0 mg/kg/injection, schedule: Q01DX005 (ip), vehicle: Klucel (hydroxypropylcellulose) (HPC)
[6] = dose: 8.0 mg/kg/injection, schedule: Q01DX009 (ip), vehicle: saline

Compound: CN(C)c1nc(N(C)C)nc(N(C)C)n1
- T/C (dose: 200.0 mg/kg/injection, schedule: Q01DX005 (ip), vehicle: saline with Tween-80): 130 % of control
- survivor count (dose: 400.0 mg/kg/injection, schedule: Q01DX005 (ip), vehicle: saline with Tween-80): 7 of 10
- survivor count (dose: 800.0 mg/kg/injection, schedule: Q01DX005 (ip), vehicle: saline with Tween-80): 1 of 10

Compound: Nc1ncnc2c1ncn2C1OC(COP(=O)(O)O)C(O)C1O (configuration not stated)
- T/C (dose: 100.0 mg/kg/injection, schedule: Q01DX009 (ip), vehicle: saline, evaluated on day 30): 94 and 111 % of control [9 of 10 alive]
- T/C (dose: 100.0 mg/kg/injection, schedule: Q01DX009 (ip), vehicle: saline, evaluated on day 60): 95 and 100 % of control
- T/C (dose: 200.0 mg/kg/injection, schedule: Q01DX009 (ip), vehicle: saline, evaluated on day 30): 100 and 103 % of control
- T/C (dose: 200.0 mg/kg/injection, schedule: Q01DX009 (ip), vehicle: saline, evaluated on day 60): 100 and 100 % of control [8 of 10 alive]
- T/C (dose: 400.0 mg/kg/injection, schedule: Q01DX009 (ip), vehicle: saline, evaluated on day 30): 105 and 106 % of control
- T/C (dose: 400.0 mg/kg/injection, schedule: Q01DX009 (ip), vehicle: saline, evaluated on day 60): 94 % of control (2×)
- T/C (dose: 800.0 mg/kg/injection, schedule: Q01DX009 (ip), vehicle: saline, evaluated on day 30): 99 and 110 % of control
- T/C (dose: 800.0 mg/kg/injection, schedule: Q01DX009 (ip), vehicle: saline, evaluated on day 60): 97 and 100 % of control

Compound: C[n+]1c2ccccc2nc2c(N)cc(N)cc21
- T/C (dose: 4.0 mg/kg/injection, schedule: Q01DX005 (ip), vehicle: suspension in saline): 142 % of control

Compound: N=[N+]=CC(=O)CCC(NC(=O)C(CCC(=O)C=[N+]=N)NC(=O)CCC(N)C(=O)O)C(=O)O (configuration not stated)
- T/C (dose: 0.4 mg/kg/injection, schedule: Q01DX005 (ip), vehicle: Klucel (hydroxypropylcellulose) (HPC)): 130 % of control

Compound: CC(=O)NNC(=O)c1ccccn1
- T/C (dose: 200.0 mg/kg/injection, schedule: Q01DX005 (ip), vehicle: Klucel (hydroxypropylcellulose) (HPC)): 132 % of control
- survivor count (dose: 400.0 mg/kg/injection, schedule: Q01DX005 (ip), vehicle: Klucel (hydroxypropylcellulose) (HPC)): 0 of 10
- survivor count (dose: 800.0 mg/kg/injection, schedule: Q01DX005 (ip), vehicle: Klucel (hydroxypropylcellulose) (HPC)): 0 of 10

Compound: O=NN(CCF)C(=O)NC1CCC(=O)NC1=O (configuration not stated)
- survivor count [1]: 6 of 10 on day 6
- survivor count (dose: 135.0 mg/kg/injection, schedule: Q01DX001 (ip), vehicle: Klucel (hydroxypropylcellulose) (HPC)): 4 of 10 on day 6

Compound: COc1ccc(CC2C(=O)NC(C)C(=O)N(C)C3C(=O)N(C)C(Cc4ccc(O)c(c4)Oc4ccc(cc4)C3O)C(=O)NC(C)C(=O)NC(C)C(=O)N2C)cc1 (configuration not stated)
- survivor count (dose: 2.0 mg/kg/injection, schedule: Q01DX009 (ip), vehicle: Klucel (hydroxypropylcellulose) (HPC)): 6 of 10
- survivor count (dose: 4.0 mg/kg/injection, schedule: Q01DX009 (ip), vehicle: Klucel (hydroxypropylcellulose) (HPC)): 10 of 10

Compound: CC[C@H]1CN2CCc3cc(OC)c(OC)cc3[C@@H]2C[C@@H]1C[C@H]1NCCc2cc(OC)c(OC)cc21
- survivor count (dose: 16.0 mg/kg/injection, schedule: Q01DX005 (ip), vehicle: Klucel (hydroxypropylcellulose) (HPC)): 2 of 10 and 10 of 10

Compound: CCCCCCC(=O)O[C@H]1CC[C@H]2[C@@H]3CCC4=CC(=O)CC[C@]4(C)[C@H]3CC[C@]12C
- survivor count (dose: 256.0 mg/kg/injection, schedule: Q01DX009 (ip), vehicle: Klucel (hydroxypropylcellulose) (HPC)): 4 of 6

Compound: CN(C)N=Nc1ccc2c(c1)N(C)c1ccc(Cl)cc1S2
- T/C (dose: 50.0 mg/kg/injection, schedule: Q01DX009 (ip), vehicle: other): 125 % of control

Compound: Cc1c2ccncc2c(C)c2c1[nH]c1ccccc12
- survivor count (dose: 20.0 mg/kg/injection, schedule: Q01DX009 (ip), vehicle: saline): 9 of 10
- survivor count (dose: 40.0 mg/kg/injection, schedule: Q01DX009 (ip), vehicle: saline): 10 of 10
- survivor count (dose: 80.0 mg/kg/injection, schedule: Q01DX009 (ip), vehicle: saline): 2 of 10

Compound: OC(CBr)C(O)C(O)C(O)CBr (configuration not stated)
- T/C (dose: 200.0 mg/kg/injection, schedule: Q01DX009 (ip), vehicle: saline): 141 % of control
- T/C (dose: 400.0 mg/kg/injection, schedule: Q01DX009 (ip), vehicle: saline): 145 % of control

Compound: COc1cccc2c1C(=O)c1c(O)c3c(c(O)c1C2=O)C[C@@](O)(C(C)=O)C[C@@H]3OC1CC(N)C(O)C(C)O1 (some centres not stated)
- survivor count (dose: 2.0 mg/kg/injection, schedule: Q01DX009 (ip), vehicle: saline): 10 of 10
- survivor count (dose: 2.0 mg/kg/injection, schedule: Q03HX008 (ip), vehicle: saline): 9 of 10
- survivor count [2]: 10 of 10
- survivor count (dose: 4.0 mg/kg/injection, schedule: Q01DX009 (ip), vehicle: water): 10 of 10

Compound: O=P1(N(CCCl)CCCl)NCCCO1 (configuration not stated)
- T/C (dose: 50.0 mg/kg/injection, schedule: Q01DX009 (ip), vehicle: water): 133 % of control
- survivor count (dose: 100.0 mg/kg/injection, schedule: Q01DX009 (ip), vehicle: saline): 10 of 10

Compound: O=C1C(=O)c2ccccc2C(O)=C1CC=C(Cl)Cl
- survivor count (dose: 80.0 mg/kg/injection, schedule: Q01DX005 (ip), vehicle: Klucel (hydroxypropylcellulose) (HPC)): 4 of 10

Compound: COc1cc2c(c3c1c(=O)c1ccccc1n3C)C=CC(C)(C)O2
- T/C [3]: 132 % of control
- survivor count [3]: 9 of 10
- survivor count (dose: 256.0 mg/kg/injection, schedule: Q01DX005 (ip), vehicle: Klucel (hydroxypropylcellulose) (HPC)): 0 of 10
- survivor count [4]: 0 of 10
- survivor count [5]: 0 of 10

Compound: O=NN(CCF)C(=O)NC1C(O)CCCC1O (configuration not stated)
- T/C (dose: 26.7 mg/kg/injection, schedule: Q01DX001 (ip), vehicle: Klucel (hydroxypropylcellulose) (HPC)): 137 % of control
- T/C (dose: 36.0 mg/kg/injection, schedule: Q01DX001 (ip), vehicle: saline): 143 % of control [8 of 10 alive on day 6]
- survivor count [1]: 3 of 10 on day 6
- survivor count (dose: 100.0 mg/kg/injection, schedule: Q01DX001 (ip), vehicle: saline): 4 of 10 on day 6

Compound: CC(C)=CCC1=C(O)c2ccccc2C(=O)C1=O
- survivor count (dose: 32.0 mg/kg/injection, schedule: Q01DX005 (ip), vehicle: Klucel (hydroxypropylcellulose) (HPC)): 10 of 10

Compound: Cc1ncc(CO)c(C)c1O
- survivor count [4]: 0 of 10
- survivor count [5]: 0 of 10

Compound: S=P(N1CC1)(N1CC1)N1CC1
- T/C (dose: 2.0 mg/kg/injection, schedule: Q01DX009 (ip), vehicle: saline, evaluated on day 30): 125 % of control
- T/C (dose: 2.0 mg/kg/injection, schedule: Q01DX009 (ip), vehicle: saline, evaluated on day 60): 127 % of control
- T/C [2]: 133 % of control
- T/C [6]: 125 % of control
- survivor count [6]: 6 of 10

Compound: COc1cc(NS(C)(=O)=O)ccc1Nc1c2ccccc2nc2ccccc12
- survivor count (dose: 10.0 mg/kg/injection, schedule: Q04DX003 (ip), vehicle: Klucel (hydroxypropylcellulose) (HPC)): 6 of 6
- survivor count (dose: 20.0 mg/kg/injection, schedule: Q04DX003 (ip), vehicle: Klucel (hydroxypropylcellulose) (HPC)): 6 of 6
- T/C (dose: 20.0 mg/kg/injection, schedule: Q04DX003 (ip), vehicle: saline): 125 % of control [5 of 6 alive]

Compound: O=[N+]([O-])O.[Ga]
- survivor count (dose: 32.0 mg/kg/injection, schedule: Q01DX005 (ip), vehicle: saline): 10 of 10
- survivor count (dose: 256.0 mg/kg/injection, schedule: Q01DX005 (ip), vehicle: saline): 4 of 10 and 9 of 10
